Results from patent US8822535B2 (priority 2005, dated 2014).
For at least one compound, name, drawing or mass did not settle the structure.

What was measured:
[1] = tested on: mice; format: in vivo, mouse (C57Bl/6)
[2] = tested on: Drosophila melanogaster; assay: Anoxia tolerance of Drosophila melanogaster after CO2 / H2S treatment; format: in vivo; conditions: adult flies, H2S present throughout the anoxic exposure (20 h)
Description: Adult flies were introduced into 35 mL tubes made of glass with a gas-tight rubber stopper (Balsh tubes). This was usually accomplished by anesthetizing flies with CO2, moving groups of flies to vials with food to recover for at least 2 hours, and then transferring them into the Balsh tube. To exchange the gaseous environment in the Balsh tube, two 18 gauge needles were inserted into the rubber stopper, and gas is blown into one of the needles at 100 mL/min. To prevent dessication, gasses were humidified by bubbling through 10 mL of water before passing it through the Balsch tube. The water in the bubbler is equilibrated with the gas for at least 20 minutes before starting the experiment.
For “stopped-flow” experiments, gas exchange proceeded for 60 minutes before sealing the tube. For “low-flow” experiments, gas flow continued throughout the experiment. CO2 was from the house source (100%), and anoxic environments were established by flushing out room air with 100% nitrogen (N2). Care was taken to prevent introduction of room air into the system while switching the atmosphere from CO2 to N2.
After anoxic treatment, oxygen was reintroduced into the Balsh tube by flushing with house air for 20 minutes. The rubber stopper was then removed and a food vial is inverted over the top of the Balsh tubes with Parafilm. […] Viability was scored at least 18 hours after the end of anoxic treatment. […]

[3] = tested on: mice; format: in vivo, mouse (C57BL/6 or C129)
[4] = tested on: mice
Description: Female C57BL/6J mice (Jackson Laboratories—Bar Harbor, Me.) were implanted with telemetry devices (PDT-4000 HR E-Mitter—MiniMitter Inc.—Bend, Oreg.) according to standard protocol provided by the manufacturer. Mice were allowed to recover for several weeks to permit body temperature and heart rate signals to stabilize. Core body temperature, heart rate, and movement of the mice were continuously monitored via the telemetry devices and recorded using VitalView software (provided by MiniMitter). Ambient temperature was monitored using a HOBO (Onset Computer Corp. —Pocasset, Mass.) and the data analyzed using BoxCar software (provided by Onset Computer Corp.).
Prior to and during exposure to testing in regulated and unregulated atmospheres, the mice were placed in a gassing chamber comprising a glass cage (with drinking water and no food) fitted with import and export tubes of FEP tubing from Cole-Parmer (Vernon Hills, Ill.) for introduction and venting of the atmosphere. The cage was sealed with a lid using Dow Corning silicone vacuum grease (Sigma—St. Louis, Mo.). The gas from each cage was vented through the export tube into the chemical hood. To ensure that the system was gas-tight, a GasTech GT portable monitor was used to detect leaks.
In some experiments, the consumption of oxygen was measured by use of a PA-10a O2 analyzer (Sable Systems) which was used according to manufacturers instructions. Similarly, the carbon dioxide being produced by the animals was monitored using a LI-7000 CO2/H2O analyzer (Li-Cor company) used according to the manufacturers instructions. These instruments were placed in line with the environmental chambers such that they sample the gas import and export tubing.
Mice were housed in a Shel Lab low temperature diurnal illumination incubator (Sheldon Manufacturing Inc. —Cornelius, Oreg.) to regulate both temperature and light cycle (8 AM lights on, 8 PM lights off) for the mice. Mice were exposed to regulated atmosphere as described above. […]

[5] = tested on: rats; conditions: upon exposure to room air after H2S
[6] = cited from earlier work
[7] = tested on: mice; assay: Cyanide exposure experiment in mice; format: in vivo, mouse
Description: To measure metabolic effects of HCN, mice were exposed to increasing concentrations of HCN starting at 1 ppm. Oxygen (O2) consumption, carbon dioxide (CO2) production, body core temperature (BCT) and behavior were measured or evaluated. […]. A metabolic effect is defined as a 10% change in less than 10 minutes in any of the assay values described above.

[8] = tested on: mice; conditions: mouse, in vivo, sc

Row | Structure (SMILES) | survival time after step-wise reduction in O2 ([1]; 150 ppm H2S pre-treatment, 1 hour 5% O2, then 4% O2 or 3% O2 (FIG. 28)) | survival in 4% O2 ([1]; 150 ppm H2S pre-treatment, direct transition to 4% O2) | survival time in 5% O2 of some pre-treated mice ([1]; 150 ppm H2S pre-treatment, recovered with no noticeable motor or behavioral deficits) | survival in 5% O2 ([1]; 20 minutes of 150 ppm H2S in room air before 5% O2, stopped at 60 minutes (FIG. 23)) | survival after graded reduction of oxygen tension ([1]; H2S pre-treatment, oxygen tensions as low as 2.5%) | O2 consumption and core body temperature ([1]; during the H2S pre-treatment (data not shown)) | recovery [2] | time to adaptation (no core temperature decrease greater than 4° C.) ([3]; 80 ppm in room air, 4 hours per day) | oxygen consumption (vO2) compared to carbon dioxide production (vCO2) ([3]; adapted mice vs untreated control mice (FIG. 42)) | Respiratory Quotient (vCO2/vO2) ([3]; adapted mice vs untreated control mice (FIG. 43)) | time to new baseline of carbon dioxide production ([4]; 80 ppm H2S) | time to return to normal range of core temperature and activity ([4]; after 90 min at 80 ppm, chamber perfused with room air) | time to recover activity ([4]; non-telemetry mouse, 80 ppm, cabinet 10° C., after removal from gassing chamber) | time to resume regular breathing patterns [5] | equilibrium constant K1 (H2S to HS−) [6] | equilibrium constant K2 (HS− to S2−) [6] | recovery of the core temperature ([7]; after 80 ppm exposure) | time to recover the core temperature following exposure to cyanide ([7]; brief treatment with 80 ppm hydrogen sulfide after cyanide) | effect on body (subcutaneous) temperature [8]
1 | S [H2S, hydrogen sulfide] | enhanced to the same level as that observed when they were exposed to 5% O2 | only a small increase in survival | more than four hours | survived | survive for an hour | did not change significantly | no flies recover | one week | increase in oxygen consumption | lower Respiratory Quotient | approximately 5 minutes | ≤ 60 min | ≤ 90 min | 20 to 30 s | 1.039 E^−07 | 6.43 E^−16 | approximately 2 hours | reduced | –
2 | NC(N)=S [Thiourea] | – | – | – | – | – | – | – | – | – | – | – | – | – | – | – | – | – | – | did not reduce subcutaneous temperature
